# Library screen at single concentrations

Chains of the proteins cited; added tags and fusions are not shown. Residues count along the entry.
UniProt I6X8D2, whole entry: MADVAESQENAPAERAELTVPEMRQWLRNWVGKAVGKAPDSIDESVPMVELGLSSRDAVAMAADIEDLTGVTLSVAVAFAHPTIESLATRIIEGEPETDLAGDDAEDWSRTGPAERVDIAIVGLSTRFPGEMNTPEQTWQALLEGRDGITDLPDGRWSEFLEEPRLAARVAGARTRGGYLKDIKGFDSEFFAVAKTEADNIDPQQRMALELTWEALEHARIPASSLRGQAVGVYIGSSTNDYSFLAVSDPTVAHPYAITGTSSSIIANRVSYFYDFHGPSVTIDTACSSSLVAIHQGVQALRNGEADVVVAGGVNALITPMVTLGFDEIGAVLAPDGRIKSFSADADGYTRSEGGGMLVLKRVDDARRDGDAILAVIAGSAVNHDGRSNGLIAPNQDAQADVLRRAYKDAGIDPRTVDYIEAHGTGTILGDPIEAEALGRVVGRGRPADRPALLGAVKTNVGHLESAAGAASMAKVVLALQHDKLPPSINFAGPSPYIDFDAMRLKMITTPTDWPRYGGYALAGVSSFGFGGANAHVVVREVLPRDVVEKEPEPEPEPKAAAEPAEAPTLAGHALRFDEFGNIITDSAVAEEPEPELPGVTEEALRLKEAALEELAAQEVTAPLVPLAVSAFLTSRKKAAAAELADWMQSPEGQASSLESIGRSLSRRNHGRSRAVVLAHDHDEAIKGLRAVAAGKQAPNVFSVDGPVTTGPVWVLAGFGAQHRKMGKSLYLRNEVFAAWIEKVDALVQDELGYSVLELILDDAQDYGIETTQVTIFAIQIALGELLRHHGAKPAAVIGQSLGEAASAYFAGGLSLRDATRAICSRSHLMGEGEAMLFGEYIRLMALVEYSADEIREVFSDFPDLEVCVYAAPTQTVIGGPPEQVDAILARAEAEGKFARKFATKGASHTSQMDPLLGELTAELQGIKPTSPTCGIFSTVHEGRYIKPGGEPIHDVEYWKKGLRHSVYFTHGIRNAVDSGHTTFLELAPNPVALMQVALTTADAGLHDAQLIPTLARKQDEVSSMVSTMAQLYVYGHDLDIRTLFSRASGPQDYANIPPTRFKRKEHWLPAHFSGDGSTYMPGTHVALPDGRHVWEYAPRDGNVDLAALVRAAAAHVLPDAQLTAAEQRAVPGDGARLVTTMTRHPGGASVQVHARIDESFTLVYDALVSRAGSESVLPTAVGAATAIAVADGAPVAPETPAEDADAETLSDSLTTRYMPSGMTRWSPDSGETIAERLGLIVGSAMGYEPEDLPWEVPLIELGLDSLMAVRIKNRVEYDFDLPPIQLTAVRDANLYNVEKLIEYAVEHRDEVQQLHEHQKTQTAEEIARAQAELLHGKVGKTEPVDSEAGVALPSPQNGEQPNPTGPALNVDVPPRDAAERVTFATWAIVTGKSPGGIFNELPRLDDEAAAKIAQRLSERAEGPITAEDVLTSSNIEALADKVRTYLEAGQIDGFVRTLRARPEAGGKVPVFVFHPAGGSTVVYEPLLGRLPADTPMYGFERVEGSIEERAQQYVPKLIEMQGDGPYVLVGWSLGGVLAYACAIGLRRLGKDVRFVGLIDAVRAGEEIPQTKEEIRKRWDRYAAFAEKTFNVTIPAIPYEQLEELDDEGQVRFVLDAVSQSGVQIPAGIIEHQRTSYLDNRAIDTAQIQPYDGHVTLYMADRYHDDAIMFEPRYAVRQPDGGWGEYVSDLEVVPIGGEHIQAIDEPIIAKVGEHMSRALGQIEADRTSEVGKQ
UniProt Q4DA54, 1-478: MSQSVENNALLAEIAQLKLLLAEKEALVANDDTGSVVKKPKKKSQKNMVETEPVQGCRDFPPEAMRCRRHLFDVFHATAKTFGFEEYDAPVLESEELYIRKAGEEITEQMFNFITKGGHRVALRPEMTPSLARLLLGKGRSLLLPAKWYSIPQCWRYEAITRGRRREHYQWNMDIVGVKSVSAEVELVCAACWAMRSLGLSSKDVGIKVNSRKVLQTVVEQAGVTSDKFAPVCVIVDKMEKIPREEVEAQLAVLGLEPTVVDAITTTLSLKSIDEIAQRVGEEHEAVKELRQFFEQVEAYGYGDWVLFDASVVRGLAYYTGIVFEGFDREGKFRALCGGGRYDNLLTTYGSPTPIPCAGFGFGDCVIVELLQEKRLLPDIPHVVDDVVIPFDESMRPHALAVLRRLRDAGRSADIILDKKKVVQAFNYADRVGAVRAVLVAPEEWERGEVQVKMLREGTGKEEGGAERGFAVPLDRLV
UniProt A4I591, 1-473: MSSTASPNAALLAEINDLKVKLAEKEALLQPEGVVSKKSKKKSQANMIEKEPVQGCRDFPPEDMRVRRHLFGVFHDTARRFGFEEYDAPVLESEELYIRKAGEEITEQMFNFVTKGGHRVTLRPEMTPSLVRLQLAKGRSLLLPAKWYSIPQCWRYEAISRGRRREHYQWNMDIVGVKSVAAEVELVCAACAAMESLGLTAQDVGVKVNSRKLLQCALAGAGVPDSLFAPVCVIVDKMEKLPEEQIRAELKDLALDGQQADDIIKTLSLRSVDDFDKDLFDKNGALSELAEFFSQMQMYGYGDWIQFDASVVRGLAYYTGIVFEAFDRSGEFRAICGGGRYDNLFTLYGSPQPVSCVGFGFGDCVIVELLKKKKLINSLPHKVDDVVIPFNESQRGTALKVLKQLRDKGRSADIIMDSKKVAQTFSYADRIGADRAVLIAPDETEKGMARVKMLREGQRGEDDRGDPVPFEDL

From ChEMBL document CHEMBL3988442, “University of Dundee, Small-Polar-MMV Screening Library” (2021).

A: 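Polyketide synthase Pks13, Mycobacterium tuberculosis (UniProt I6X8D2). Enzyme assay of the thioesterase domain of polyketide synthase 13; the read-out is not stated. Concentration: 30 µM. Higher reads as stronger inhibition (inferred from which compounds were picked for retests). Size under these conditions: about 67,000 compounds, about 300 of them at 50% or above in at least one test.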
B: 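Histidine-tRNA ligase, Trypanosoma cruzi CL Brener (UniProt Q4DA54). Enzyme assay of histidyl-tRNA synthetase; the read-out is not stated. Compounds at 30 µM. Higher reads as stronger inhibition (inferred: compounds with an IC50 in retests scored well above the rest). About 69,000 compounds were tested under these conditions; 0.045% (about 31) showed 50% or more at least once.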
C: 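Enzyme assay of histidyl-tRNA synthetase; the read-out is not stated. Target: Histidine-tRNA ligase, Leishmania infantum (UniProt A4I591). Concentration: 30 µM. The record gives no direction; compounds that gave an IC50 in retests scored well above the rest, so higher reads as stronger inhibition. The assay is labelled LdHisRS but filed under L. infantum. About 69,000 compounds were tested under these conditions; 0.6% (about 410) showed 50% or more at least once.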

Values are the deposited “Percent Effect”, in %.
The controls that fix the scale are not given in the record; negative values are as filed.
The compounds are a random part of those screened.

structure | A | B | C
Cc1cc(F)ccc1C(=O)N1CCN(C)C2(CCC(=O)N(C)CC2)C1 (stereo not drawn) | -6.233 | 1.493 | 12.59
CN(C)c1cc(CNC(=O)C2COc3ccccc3O2)ccn1 (stereo not drawn) | -47.11 | 2.762 | 0
CS(=O)(=O)c1cnc(C2CCCC2)nc1C1CCCNC1 (stereo not drawn) | -6.08 | 4.036 | 8.235
Cn1cnnc1C1CCCN(C(=O)c2ccccc2Cl)C1 (stereo not drawn) | -13.75 | 2.642 | 16
O=C(N[C@@H]1CN(c2ncccn2)C[C@@H]2CCCO[C@@H]21)c1cnccn1 | -17.97 | 1.622 | 13.21
CCCc1cc(N2CCC(NCC3(O)CCCCC3)CC2)nc(C)n1 | -26.41 | -8.696 | 12.5
Cc1cc(C)n(NC(=O)c2ccccc2F)c(=O)c1 | -28.47 | 0 | 0
CN1CCOC(CNCc2nc(-c3cccnc3)no2)C1 (stereo not drawn) | -14.95 | 4.082 | 17.14
COCCN1C[C@@H]2CN(c3ncc(F)cn3)C[C@@H]2C1=O | -5.005 | 1.84 | 17.28
CC(C)CNC(=O)NC(=O)C(C)Nc1cccc(CN2CCOC2=O)c1 (stereo not drawn) | -7.455 | 1.466 | 0.9259
O=C1N(c2cccc(F)c2)Cc2nc(=O)n(Cc3ccc(Cl)cc3)n21 | -29.45 | 0.9901 | 9.783
COc1ccc2nnc(C(=O)NC3CCCC3)nc2c1 | 13.76 | 10.31 | 12.64
CC(=O)Nc1ccc2nc(-c3nccn3CCCN(C)C)ccc2c1 | -0.3528 | 7.514 | 12.77
O=C(c1cnc(O)cn1)N1CCC(CN2CCOCC2)CC1 | -31.88 | 6.466 | 1.266
c1cc(NCc2ccncc2)nc(C2CCCN2)c1 (stereo not drawn) | 9.402 | 4.857 | 9.396
Cn1cc(C(C)(O)CNC(=O)c2ccc(Br)s2)cn1 (stereo not drawn) | -2.449 | 6.358 | 14.89
CSc1cccc(NC(=O)CCC(=O)Nc2nccs2)c1 | -17.51 | 8.808 | 16.85
O=C1C[C@H]2[C@@H](CCN2Cc2ccccn2)N1Cc1cccnc1 | -24.24 | 6.796 | 19.23
O=C(c1c[nH]cn1)N1CCC(F)(F)C2(CCN(c3ncccn3)C2)C1 (stereo not drawn) | -45.64 | 4.301 | 9.735
CC(C)c1nnc(NC(=O)NC2CCN(Cc3ccccc3)C2)s1 (stereo not drawn) | -20.77 | 3.226 | 10.19
CNc1cc(C)nc(C2CN(Cc3ccc(C)nc3)CCO2)c1 (stereo not drawn) | -39.75 | -0.5405 | 8.333
CCCNC(=O)c1nc2c(o1)CN(C(=O)CN(C)C)C2 | -38.74 | 3.96 | 23.29
CCOc1ccc(-c2ccnc(C3CC3)n2)cc1C(=O)O | 0.6608 | 2.041 | 16.67
CCCNC(c1cccnc1)c1ccc(F)cc1F (stereo not drawn) | 10.66 | -2.439 | 13.25
CN1CCN(Cc2cnc3n2CCN(C(=O)N2CCCC2)C3)CC1 | -9.272 | 0 | 20.59
CS(=O)(=O)N1CCCC1C(=O)Nc1cnc2n1CCCC2 (stereo not drawn) | -12.84 | 1.205 | 12.82
OCCNc1nccc(-c2c[nH]nc2-c2ccco2)n1 | 12 | 1.13 | 28.57
O=C(NCCNC(=O)c1ccc(Cl)cc1)NCCn1cccc1 | -16.35 | -0.9901 | 16.3
CCCN(CC(=O)N1CCNCC1)C(=O)c1cccc(Cl)c1 | -14.49 | 7.317 | 31.58
c1ccc(-n2nc(CNC3CCc4ncnn4C3)c3c2CCC3)cc1 (stereo not drawn) | -26.19 | 3.226 | 0.9259
CC(C)CC(O)C1CCN(Cc2ccc(N(C)C)nc2)CC1 (stereo not drawn) | 11.3 | 1.02 | 11.57
Cc1nnc2n1CCN(C(=O)CN1C(=O)CCOc3ccccc31)C2 | -43.94 | -0.5236 | 15.52
O=S(=O)(C1CC1)N1CCC2(COCc3cnc(NCC4CC4)nc32)C1 (stereo not drawn) | -11.08 | -1.754 | 22.58
COCC(=O)N1C[C@H]2CN(Cc3csc(C)n3)C(=O)[C@H]2C1 | -33.89 | 10.84 | 11.76
CCSc1ncc(CN2CCN(c3nc(C)ncc3C)CC2)cn1 | -6.966 | 10.71 | 20
CN1CCN(Cc2cnc3n2CCN(C(=O)c2ccoc2)C3)CC1 | -20.39 | 0.9852 | 5.882
Cc1cnc(N)nc1N1CCN(CCCO)CC1 | -18.8 | -13.53 | 10.83
CCC[C@]12CN3C[C@](CCC)(CN(C1)C3c1[nH]c(=O)[nH]c(=O)c1C)C2=O (stereo partly drawn) | 0.4722 | 11 | 13.04
O=C(N1CCCC1)N1CCC2(CC1)COCCN(Cc1cccnc1)C2 | -4.1 | 7.143 | 5
CCn1cc(CN2CCC(c3ncc(Cl)cc3S(C)(=O)=O)CC2)c(C)n1 | 10.76 | 5.65 | 9.79
CN(CCCc1cc(-c2ccc(F)cc2)n(C)n1)CC(=O)NC(N)=O | 3.762 | 7.921 | 20.88

3 of the entries, repeated:

structure	A	B	C
COc1ccc2nnc(C(=O)NC3CCCC3)nc2c1	13.76	10.31	12.64
O=C(NCCNC(=O)c1ccc(Cl)cc1)NCCn1cccc1	-16.35	-0.9901	16.3
Cc1nnc2n1CCN(C(=O)CN1C(=O)CCOc3ccccc31)C2	-43.94	-0.5236	15.52